Data as given in PubChem BioAssay AID1259405 (NCATS, 2018)
Here is one part, drawn at random, of about 50,000 deposited reagents. About 4,000 of them (8%) were called active. 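Mouse siRNA library applied to hamster cells; one well for each siRNA.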 Reagents against one gene are numbered here.

Screen: 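Mouse-designed siRNAs used to find CHO productivity engineering targets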 (primary screen)
Cell system: Chinese hamster CHO-K1 ovary cells with stable secreted eGFP expression
Knock-down reagent: single siRNA against mouse genes, 0.8 pmol siRNA per well (2 µl of 400 nM stock)
Duration: 3 days
Measurement: 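Percent of the per-plate non-targeting control median for intracellular GFP per well by laser scanning cytometry and for cell viability by ATP luminescence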
Reading the numbers: GFP, % of control: higher = more GFP per well, higher productivity; viability (ATP), % of control: higher = more viable cells (more ATP)
Active means: 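a knock-down is called active if GFP reaches 120% or more of non-targeting control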

gene symbol | reagent | GFP, % of control | viability (ATP), % of control | outcome
Thyn1 | 1 | 37.3 | 44.4 | inactive
Thyn1 | 2 | 54.3 | 101 | inactive
Thyn1 | 3 | 92.4 | 96.7 | inactive
Ppp1r13b | 1 | 81.6 | 82.9 | inactive
Ppp1r13b | 2 | 100 | 83.2 | inactive
Cimap3 | 1 | 48.4 | 18.1 | inactive
Cimap3 | 2 | 70.9 | 93.3 | inactive
Cimap3 | 3 | 109 | 125 | inactive
Fam81a | 1 | 57.9 | 77.8 | inactive
Fam81a | 2 | 105 | 113 | inactive
Fam81a | 3 | 99.9 | 131 | inactive
Gns | 1 | 65.9 | 65.5 | inactive
Gns | 2 | 128 | 87.1 | active
Gns | 3 | 126 | 194 | active
Papln | 1 | 26.5 | 31.2 | inactive
Papln | 2 | 87.7 | 81.4 | inactive
Papln | 3 | 88.2 | 102 | inactive
Pheta1 | 1 | 40.4 | 50.7 | inactive
Pheta1 | 2 | 49.1 | 56.3 | inactive
Pheta1 | 3 | 103 | 102 | inactive
Tmem50a | 1 | 58.9 | 65.5 | inactive
Tmem50a | 2 | 73 | 116 | inactive
Tmem50a | 3 | 116 | 99.7 | inactive
Mrps26 | 1 | 89.1 | 81 | inactive
Mrps26 | 2 | 27.5 | 34.4 | inactive
Mrps26 | 3 | 77.2 | 76.2 | inactive
Kcnk9 | 1 | 132 | 99.8 | active
Kcnk9 | 2 | 40.8 | 59.3 | inactive
Kcnk9 | 3 | 108 | 86.2 | inactive
Fbxo43 | 1 | 64.8 | 66.6 | inactive
Fbxo43 | 2 | 94 | 72.2 | inactive
Fbxo43 | 3 | 93.7 | 49.2 | inactive
Hnrnpa2b1 | 1 | 91.7 | 79.4 | inactive
Hnrnpa2b1 | 2 | 68.9 | 57 | inactive
Hnrnpa2b1 | 3 | 104 | 45.3 | inactive
Nlk | 1 | 82.6 | 87.5 | inactive
Tsen34 | 1 | 61.8 | 62.3 | inactive
Tsen34 | 2 | 61.6 | 68.2 | inactive
Tsen34 | 3 | 140 | 85.8 | active
Slc6a4 | 1 | 98.8 | 88.6 | inactive
Slc6a4 | 2 | 27.8 | 26.6 | inactive
Slc6a4 | 3 | 95.4 | 108 | inactive
Cpa2 | 1 | 97.2 | 90.7 | inactive
Cpa2 | 2 | 39.4 | 44.6 | inactive
Cpa2 | 3 | 80.2 | 83.3 | inactive
Syt6 | 1 | 104 | 88.5 | inactive
Syt6 | 2 | 55.6 | 59.3 | inactive
Pigw | 1 | 85.9 | 109 | inactive
Pigw | 2 | 64 | 68.5 | inactive
Pigw | 3 | 84.7 | 13 | inactive
Sec22b | 1 | 43.8 | 58.9 | inactive
Sec22b | 2 | 78 | 45.3 | inactive
Sec22b | 3 | 105 | 89.4 | inactive
Ankzf1 | 1 | 99.6 | 108 | inactive
Ankzf1 | 2 | 33.8 | 33.5 | inactive
Ankzf1 | 3 | 126 | 92.3 | active
Eif2s1 | 1 | 71.8 | 59.4 | inactive
Eif2s1 | 2 | 32.8 | 38.1 | inactive
Eif2s1 | 3 | 85.7 | 82.6 | inactive
Gpr39 | 1 | 115 | 44.7 | inactive
Gpr39 | 2 | 57.1 | 86.1 | inactive
Gpr39 | 3 | 140 | 85.5 | active
Il24 | 1 | 99.1 | 127 | inactive
Il24 | 2 | 102 | 72 | inactive
Cyp4b1 | 1 | 108 | 106 | inactive
Cyp4b1 | 2 | 78.4 | 68.4 | inactive
Cyp4b1 | 3 | 105 | 90.5 | inactive
Grap2 | 1 | 95.7 | 116 | inactive
Grap2 | 2 | 154 | 98.1 | active
Rnf130 | 1 | 72.8 | 61.6 | inactive
Rnf130 | 2 | 102 | 95.1 | inactive
Rnf130 | 3 | 0.0329 | 124 | inactive
Ube2b | 1 | 91.8 | 65.5 | inactive
Ube2b | 2 | 95.1 | 103 | inactive
Ube2b | 3 | 91.4 | 109 | inactive
Dnmt3b | 1 | 95.6 | 103 | inactive
Dnmt3b | 2 | 102 | 78.6 | inactive
Dnmt3b | 3 | 39.6 | 58.6 | inactive
Erlin1 | 1 | 64.4 | 66 | inactive
Erlin1 | 2 | 68.8 | 69.5 | inactive
Erlin1 | 3 | 94.8 | 82 | inactive
Mvk | 1 | 102 | 87 | inactive
Cited1 | 1 | 141 | 83.1 | active
Cited1 | 2 | 99.1 | 82.7 | inactive
Col11a2 | 1 | 90.6 | 64.5 | inactive
Col11a2 | 2 | 128 | 105 | active
Col11a2 | 3 | 57.6 | 42.5 | inactive
Shisa4 | 1 | 42.2 | 60.6 | inactive
Shisa4 | 2 | 130 | 93 | active
Shisa4 | 3 | 80 | 110 | inactive
Amer3 | 1 | 64.2 | 65.2 | inactive
Amer3 | 2 | 112 | 68 | inactive
Amer3 | 3 | 68.2 | 80.6 | inactive
Adam5 | 1 | 87.8 | 91.3 | inactive
Adam5 | 2 | 29.7 | 32.7 | inactive
Adam5 | 3 | 71.2 | 82.5 | inactive
Tctn3 | 1 | 80.6 | 65.9 | inactive
Tctn3 | 2 | 105 | 82.4 | inactive
Tctn3 | 3 | 85.1 | 98.2 | inactive
Lpl | 1 | 100 | 132 | inactive
Lpl | 2 | 119 | 171 | inactive
Lpl | 3 | 66.8 | 84.9 | inactive
Zfp955a | 1 | 45 | 59.6 | inactive
Zfp955a | 2 | 59.6 | 68.5 | inactive
Zfp955a | 3 | 63.8 | 48.5 | inactive
Kcnd1 | 1 | 90.8 | 73.7 | inactive
Kcnd1 | 2 | 78.2 | 119 | inactive
Kcnd1 | 3 | 88 | 79 | inactive

Ordered by “viability (ATP), % of control” (highest first): 8 of the entries above
gene symbol | reagent | GFP, % of control | viability (ATP), % of control | outcome
Il24 | 1 | 99.1 | 127 | inactive
Cyp4b1 | 1 | 108 | 106 | inactive
Cyp4b1 | 3 | 105 | 90.5 | inactive
Gpr39 | 2 | 57.1 | 86.1 | inactive
Gpr39 | 3 | 140 | 85.5 | active
Il24 | 2 | 102 | 72 | inactive
Cyp4b1 | 2 | 78.4 | 68.4 | inactive
Gpr39 | 1 | 115 | 44.7 | inactive
